We go through three molecules from paper PMC5207070, “The Amino-terminal Domain of the Androgen Receptor Co-opts Extracellular Signal-regulated Kinase (ERK) Docking Sites in ELK1 Protein to Induce Sustained Gene Activation That Supports Prostate Cancer Cell Growth*^([image sbox.jpg])” (The Journal of Biological Chemistry, 2016).

Protein sequences, listed by entry. Tags and fused reporters are not part of them.
UniProt P10275: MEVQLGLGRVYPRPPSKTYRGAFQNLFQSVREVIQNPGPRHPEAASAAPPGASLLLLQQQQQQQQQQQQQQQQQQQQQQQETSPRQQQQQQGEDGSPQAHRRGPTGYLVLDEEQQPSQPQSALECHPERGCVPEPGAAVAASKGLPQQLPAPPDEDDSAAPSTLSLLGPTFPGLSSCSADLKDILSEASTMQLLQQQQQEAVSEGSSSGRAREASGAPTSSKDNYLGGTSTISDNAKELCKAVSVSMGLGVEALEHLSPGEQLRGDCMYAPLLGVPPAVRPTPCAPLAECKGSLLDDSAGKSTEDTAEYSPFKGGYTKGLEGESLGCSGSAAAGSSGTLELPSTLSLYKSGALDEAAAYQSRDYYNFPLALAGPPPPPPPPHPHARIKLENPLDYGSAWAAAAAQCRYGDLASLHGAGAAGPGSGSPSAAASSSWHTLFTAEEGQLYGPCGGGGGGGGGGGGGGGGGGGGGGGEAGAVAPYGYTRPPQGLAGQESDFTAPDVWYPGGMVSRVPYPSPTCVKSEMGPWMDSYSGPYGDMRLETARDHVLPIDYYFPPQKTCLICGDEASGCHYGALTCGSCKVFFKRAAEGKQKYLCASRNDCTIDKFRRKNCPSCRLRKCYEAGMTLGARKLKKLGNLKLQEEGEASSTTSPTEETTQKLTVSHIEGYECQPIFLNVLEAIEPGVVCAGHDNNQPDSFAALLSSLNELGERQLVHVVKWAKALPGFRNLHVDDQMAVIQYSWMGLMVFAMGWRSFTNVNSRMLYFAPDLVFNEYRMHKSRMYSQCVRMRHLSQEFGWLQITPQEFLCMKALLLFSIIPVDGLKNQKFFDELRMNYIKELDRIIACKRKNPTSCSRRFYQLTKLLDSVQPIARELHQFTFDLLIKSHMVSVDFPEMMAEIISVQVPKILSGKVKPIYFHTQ

B1: His-tagged ELK1 (natural protein, human, UniProt P19419 1-428, looked up)
chain: MDPSVTLWQFLLQLLREQGNGHIISWTSRDGGEFKLVDAEEVARLWGLRKNKTNMNYDKLSRALRYYYDKNIIRKVSGQKFVYKFVSYPEVAGCSTEDCPPQPEVSVTSTMPNVAPAAIHAAPGDTVSGKPGTPKGAGMAGPGGLARSSRNEYMRSGLYSTFTIQSLQPQPPPHPRPAVVLPSAAPAGAAAPPSGSRSTSPSPLEACLEAEEAGLPLQVILTPPEAPNLKSEELNVEPGLGRALPPEVKVEGPKEELEVAGERGFVPETTKAEPEVPPQEGVPARLPAVVMDTAGQAGGHAASSPEISQPQKGRKPRDLELPLSPSLLGGPGPERTPGSGSGSGLQAPGPALTPSLLPTHTLTPVLLTPSSLPPSIHFWSTLSPIAPRSPAKLSFQFPSSGSAQVHIPSISVDGLSTPVVLSPGPQKP
notes: ELK1, recombinant; Construct details are in the supplemental material; also called purified ELK1
B2: ELK1 FxLa (protein, UniProt P19419 1-428)
chain: B1 chain with F397L, P398A
B3: ELK1Δ308–321 (protein, UniProt P19419)
chain: MDPSVTLWQFLLQLLREQGNGHIISWTSRDGGEFKLVDAEEVARLWGLRKNKTNMNYDKLSRALRYYYDKNIIRKVSGQKFVYKFVSYPEVAGCSTEDCPPQPEVSVTSTMPNVAPAAIHAAPGDTVSGKPGTPKGAGMAGPGGLARSSRNEYMRSGLYSTFTIQSLQPQPPPHPRPAVVLPSAAPAGAAAPPSGSRSTSPSPLEACLEAEEAGLPLQVILTPPEAPNLKSEELNVEPGLGRALPPEVKVEGPKEELEVAGERGFVPETTKAEPEVPPQEGVPARLPAVVMDTAGQAGGHAASSPEIPLSPSLLGGPGPERTPGSGSGSGLQAPGPALTPSLLPTHTLTPVLLTPSSLPPSIHFWSTLSPIAPRSPAKLSFQFPSSGSAQVHIPSISVDGLSTPVVLSPGPQKP

Where a chain is given by its changes, count along the chain named. Results are given in words; binding and its absence hold for the method and conditions named. Binding seen in cells or lysates may run through a third protein. Some binding calls cover weakened binding; strength is not graded here.

This test addresses full-length androgen receptor (AR), ectopically expressed (human) (UniProt P10275). The test is described as follows: co-IP; HeLa cells co-transfected with AR and ELK1 or ELK1 mutants; RIPA lysates (500 μg); immunoprecipitation with anti-AR antibody (ab74272) on protein A-agarose, 4 °C overnight; blot with anti-AR and anti-ELK1.
B1: the binding result is reported as “binds”. As to B2, the binding entry is listed as “no binding”. In the case of B3, the binding result is on record as “no binding”.
